Experimental data from patent EP2397471A1, “Benzimidazole compounds and their use” (China Medical University, priority 2010, dated 2011).
For at least one compound, name, drawing or mass did not settle the structure.

Test system: PC-3 cells
Test: JNK involvement in apoptosis, propidium iodide FACScan flow cytometry
Format: cell-based
Details: SP600125 20 µM in mixture with Compound 55 10 µM, 12 hrs, 24 hrs, and 36 hrs

For `Oc1c2ccccc2c2c3c(cccc13)N=N2` [SP600125], the “apoptosis induced by Compound 55” value was “significantly inhibited apoptosis induced by Compound 55”.
